No constants are given. Whether binding was seen depends on the method and setting. Some results given as binding are weak or reduced against the parent protein; the word gives no strength.
Target: T1, Purified SPARC (immobilized onto PVDF membrane) (UniProt P09486)
T1 sequence (looked up): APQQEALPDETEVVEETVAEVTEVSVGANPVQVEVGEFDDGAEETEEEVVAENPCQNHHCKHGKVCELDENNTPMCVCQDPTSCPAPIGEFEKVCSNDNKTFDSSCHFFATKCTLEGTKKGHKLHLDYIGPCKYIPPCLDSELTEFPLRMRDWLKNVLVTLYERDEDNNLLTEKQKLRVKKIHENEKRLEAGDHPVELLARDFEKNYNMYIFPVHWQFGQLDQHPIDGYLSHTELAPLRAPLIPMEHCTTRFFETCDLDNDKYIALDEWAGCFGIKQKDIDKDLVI
Assay: filter binding assay, SPARC on PVDF membrane, fluorometer read-out

Sequences of proteins named here, by UniProt entry; tags and fusion partners are left off. Residues count along the entry.
UniProt P02769, residues 25-607: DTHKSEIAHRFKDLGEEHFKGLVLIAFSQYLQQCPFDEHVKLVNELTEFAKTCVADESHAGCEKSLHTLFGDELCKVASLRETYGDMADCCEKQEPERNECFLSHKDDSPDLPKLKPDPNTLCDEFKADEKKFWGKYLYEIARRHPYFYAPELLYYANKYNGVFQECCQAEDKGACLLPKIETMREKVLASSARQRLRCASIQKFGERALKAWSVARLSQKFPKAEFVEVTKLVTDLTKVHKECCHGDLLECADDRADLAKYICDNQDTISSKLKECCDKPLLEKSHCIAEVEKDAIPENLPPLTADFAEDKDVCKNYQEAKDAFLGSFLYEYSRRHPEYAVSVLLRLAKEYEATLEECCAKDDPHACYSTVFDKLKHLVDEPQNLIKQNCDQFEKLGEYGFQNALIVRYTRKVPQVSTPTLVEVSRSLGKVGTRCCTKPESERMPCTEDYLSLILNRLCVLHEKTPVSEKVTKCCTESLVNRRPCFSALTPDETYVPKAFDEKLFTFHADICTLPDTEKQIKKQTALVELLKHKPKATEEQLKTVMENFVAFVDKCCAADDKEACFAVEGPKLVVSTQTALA

- binding: binds
Substance: BSA-Alexa fluor 488 (Molecular Probes) (from UniProt P02769 25-607)

Reference: patent US20160243074A1
